According to article PMC3958334:
These are yes or no findings as the source states them, for the method shown. In cells and extracts the contact can be indirect. Some entries that bind do so weakly or less than the wild type. Where a sequence is shown, tags or fusion partners need not be part of it.

Biological target: T1, HSV-MOB4 (Drosophila) (UniProt Q7K0E3)
T1 sequence: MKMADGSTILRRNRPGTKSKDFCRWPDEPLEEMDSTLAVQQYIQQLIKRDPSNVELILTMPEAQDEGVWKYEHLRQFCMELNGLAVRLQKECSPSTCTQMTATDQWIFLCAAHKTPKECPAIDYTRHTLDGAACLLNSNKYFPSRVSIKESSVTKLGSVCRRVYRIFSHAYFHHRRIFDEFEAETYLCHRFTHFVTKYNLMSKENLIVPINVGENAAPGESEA
Test: co-IP; S2 cells transfected with plasmids for two tagged STRIPAK proteins (binary co-expression); lysates immunoprecipitated with anti-HA or anti-HSV; immunoblot of immunoprecipitates and lysates

binding: binds
B1: GFP-FGOP2 (protein, UniProt Q9VM65 1-315)
chain: MSNLSVGQIIMDAQRMASRVKDLDALGTALLEEAENNNRLVESLRQYQDDIESLNRISNNKTNADMVNRIQQQNINSSEILKENRELKIFIEDYERAMELMMQKYREHTVSKVLDSKFSFKELYNERMWQVIREQREKINEMAAVMQLAASVDDGVVQRELQTISQLRLENETLRELLQISKQYGSSQRPIRESDHLLEEKAVQTDSTADDSADDLSISGASVENMNNNSVIQMYSSPEQPAKVAGTTNSFNTAPVHSQSETQAPSVTLETAPPGEEPLANDNNNGPAVNTTSAPPPATTSNESVEDQATVAPAT
